Measurements reported in US20240327530A1.
These are yes or no findings as the source states them, for the method shown. Some entries that bind do so weakly or less than the wild type.

The chains behind the UniProt entries cited, without tags or fusion partners. Where a name states a change or a piece, a line headed by the entry shows the natural chain unless it says otherwise.
UniProt Q9NPH3: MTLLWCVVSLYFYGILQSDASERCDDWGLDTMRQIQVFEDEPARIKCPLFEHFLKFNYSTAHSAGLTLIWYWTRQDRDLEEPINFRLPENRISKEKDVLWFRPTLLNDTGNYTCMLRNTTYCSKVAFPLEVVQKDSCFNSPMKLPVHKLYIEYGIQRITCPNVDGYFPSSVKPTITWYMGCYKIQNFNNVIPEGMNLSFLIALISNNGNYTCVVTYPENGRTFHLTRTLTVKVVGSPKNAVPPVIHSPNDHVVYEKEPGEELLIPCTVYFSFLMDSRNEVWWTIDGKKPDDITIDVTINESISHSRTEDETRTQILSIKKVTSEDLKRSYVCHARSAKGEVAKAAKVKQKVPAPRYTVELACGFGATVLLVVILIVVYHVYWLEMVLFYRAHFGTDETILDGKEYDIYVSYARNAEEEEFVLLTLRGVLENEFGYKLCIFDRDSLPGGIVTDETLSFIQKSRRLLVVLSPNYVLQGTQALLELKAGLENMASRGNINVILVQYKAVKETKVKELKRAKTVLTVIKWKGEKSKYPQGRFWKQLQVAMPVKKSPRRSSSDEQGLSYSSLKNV
UniProt P14778: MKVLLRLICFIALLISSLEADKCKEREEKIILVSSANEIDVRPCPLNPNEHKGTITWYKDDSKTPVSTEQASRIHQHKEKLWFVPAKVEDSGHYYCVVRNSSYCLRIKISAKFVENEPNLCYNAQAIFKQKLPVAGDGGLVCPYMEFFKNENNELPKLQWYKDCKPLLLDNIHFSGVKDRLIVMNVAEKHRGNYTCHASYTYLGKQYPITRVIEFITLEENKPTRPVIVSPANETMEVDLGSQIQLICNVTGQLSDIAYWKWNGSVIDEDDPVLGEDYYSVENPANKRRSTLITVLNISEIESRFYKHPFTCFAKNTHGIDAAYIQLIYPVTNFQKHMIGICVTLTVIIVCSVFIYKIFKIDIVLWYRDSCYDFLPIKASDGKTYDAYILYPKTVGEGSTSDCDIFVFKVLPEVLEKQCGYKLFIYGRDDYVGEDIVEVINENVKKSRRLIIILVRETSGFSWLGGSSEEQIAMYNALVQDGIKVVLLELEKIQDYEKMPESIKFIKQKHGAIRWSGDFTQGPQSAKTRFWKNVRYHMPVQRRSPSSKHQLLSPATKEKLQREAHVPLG

Target: Recombinant human IL-1RAP Fc fusion protein (Acrobiosystems, catalog no. ILP-H5256) (human) (UniProt Q9NPH3)
Assay: SPR, second injection of premixed IL-1R1 50 nM + IL-1β 100 nM + Fab 300 nM over captured human IL-1RAP Fc saturated with the non-blocking anti-IL-1RAP-E1 Fab

binding: binds
Substance: IL-1R1/IL-1β receptor/cytokine complex (from UniProt P14778 18-332; P01584 117-269)
